{"source": "the supplement of paper PMC8728848", "binders": {"B1": {"name": "Mermaid2 (Stilbonema majum) (protein)", "chain": "MGSSHHHHHHSSGLVPRGSHMAASGWLRSPQGTVVKLYRRSLSWSKADEFCKDVDGRLVVDRTADMHLFLIKNVLKEKKSRVWVGLRRTAPHSRTWIWSDGTRQNEDDLNTNLWLRDEPNDAAGEEECALFMYSPWEKAWGLNDYLCRGGCRSYQFICEKGIR"}}, "assay_in_all_cases": "glycan array binding signal (z-score within array); higher = stronger binding", "details_in_all_cases": "glycan notation: IUPAC condensed, linker removed", "key": {"[1]": {"target": "GlcNAc(b1-4)GlcNAc(b1-4)GlcNAc(b1-4)GlcNAc(b1-4)GlcNAc(b1-4)GlcNAc", "summary_of_the_method": "(§1)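 From the Consortium for Functional Glycomics database, 3228 arrays were curated, keeping only those whose protein sequence was available. Binding is given as a within-array Z-score averaged across arrays sharing a protein sequence and across linkers. Negative Z-scores can be read as non-binding.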"}, "[2]": {"target": "GlcNAc(b1-4)[GlcNAc(b1-6)]GalNAc", "summary_of_the_method": "as §1"}, "[3]": {"target": "GlcNAc(b1-6)Gal(b1-4)GlcNAc", "summary_of_the_method": "as §1"}, "GlcNAc(b1-6)GalNAc": {"target": "GlcNAc(b1-6)GalNAc", "summary_of_the_method": "as §1"}, "[4]": {"target": "GlcNAc6S(b1-3)Gal(b1-4)GlcNAc", "summary_of_the_method": "as §1"}, "Kdn(a2-3)Gal(b1-3)GalNAc": {"target": "Kdn(a2-3)Gal(b1-3)GalNAc", "summary_of_the_method": "as §1"}, "Kdn(a2-3)Gal(b1-3)GlcNAc": {"target": "Kdn(a2-3)Gal(b1-3)GlcNAc", "summary_of_the_method": "as §1"}, "Kdn(a2-3)Gal(b1-4)Glc": {"target": "Kdn(a2-3)Gal(b1-4)Glc", "summary_of_the_method": "as §1"}, "Kdn(a2-3)Gal(b1-4)GlcNAc": {"target": "Kdn(a2-3)Gal(b1-4)GlcNAc", "summary_of_the_method": "as §1"}, "[5]": {"target": "Kdn(a2-3)Gal(b1-4)[Fuc(a1-3)]GlcNAc", "summary_of_the_method": "as §1"}, "Kdn(a2-6)Gal(b1-4)GlcNAc": {"target": "Kdn(a2-6)Gal(b1-4)GlcNAc", "summary_of_the_method": "as §1"}, "[6]": {"target": "Man(a1-2)Man(a1-2)Man(a1-3)Man", "summary_of_the_method": "as §1"}, "[7]": {"target": "Man(a1-2)Man(a1-2)Man(a1-6)[Man(a1-3)]Man", "summary_of_the_method": "as §1"}, "Man(a1-2)Man(a1-3)Man": {"target": "Man(a1-2)Man(a1-3)Man", "summary_of_the_method": "as §1"}, "[8]": {"target": "Man(a1-2)Man(a1-3)[Man(a1-2)Man(a1-6)]Man", "summary_of_the_method": "as §1"}, "[9]": {"target": "Man(a1-2)Man(a1-3)[Man(a1-2)Man(a1-6)]Man(a1-6)[Man(a1-2)Man(a1-2)Man(a1-3)]Man", "summary_of_the_method": "as §1"}, "[10]": {"target": "Man(a1-2)Man(a1-3)[Man(a1-2)Man(a1-6)]Man(a1-6)[Man(a1-2)Man(a1-2)Man(a1-3)]Man(b1-4)GlcNAc(b1-4)GlcNAc", "summary_of_the_method": "as §1"}, "[11]": {"target": "Man(a1-2)Man(a1-3)[Man(a1-6)]Man(a1-6)[Man(a1-2)Man(a1-3)]Man(b1-4)GlcNAc(b1-4)GlcNAc", "summary_of_the_method": "as §1"}, "[12]": {"target": "Man(a1-2)Man(a1-6)[Man(a1-3)]Man(a1-6)[Man(a1-2)Man(a1-2)Man(a1-3)]Man", "summary_of_the_method": "as §1"}, "[13]": {"target": "Man(a1-2)Man(a1-6)[Man(a1-3)]Man(a1-6)[Man(a1-2)Man(a1-2)Man(a1-3)]Man(b1-4)GlcNAc(b1-4)GlcNAc", "summary_of_the_method": "as §1"}, "Man(a1-3)[Man(a1-6)]Man": {"target": "Man(a1-3)[Man(a1-6)]Man", "summary_of_the_method": "as §1"}, "[14]": {"target": "Man(a1-3)[Man(a1-6)]Man(a1-6)[Man(a1-2)Man(a1-3)]Man(b1-4)GlcNAc(b1-4)GlcNAc", "summary_of_the_method": "as §1"}, "[15]": {"target": "Man(a1-3)[Man(a1-6)]Man(a1-6)[Man(a1-3)]Man", "summary_of_the_method": "as §1"}, "[16]": {"target": "Man(a1-3)[Man(a1-6)]Man(a1-6)[Man(a1-3)]Man(b1-4)GlcNAc(b1-4)GlcNAc", "summary_of_the_method": "as §1"}, "[17]": {"target": "Man(a1-3)[Man(a1-6)]Man(b1-4)GlcNAc(b1-4)GlcNAc", "summary_of_the_method": "as §1"}, "[18]": {"target": "Man(a1-3)[Man(a1-6)]Man(b1-4)GlcNAc(b1-4)[Fuc(a1-6)]GlcNAc", "summary_of_the_method": "as §1"}, "Man(a1-6)Man": {"target": "Man(a1-6)Man", "summary_of_the_method": "as §1"}, "Man(b1-4)GlcNAc": {"target": "Man(b1-4)GlcNAc", "summary_of_the_method": "as §1"}, "MurNAc(b1-4)GlcNAc": {"target": "MurNAc(b1-4)GlcNAc", "summary_of_the_method": "as §1"}, "Neu5Ac(a2-3)Gal": {"target": "Neu5Ac(a2-3)Gal", "summary_of_the_method": "as §1"}, "[19]": {"target": "Neu5Ac(a2-3)Gal(b1-3)GalNAc", "summary_of_the_method": "as §1"}, "[20]": {"target": "Neu5Ac(a2-3)Gal(b1-3)GalNAc(b1-3)Gal(a1-4)Gal(b1-4)Glc", "summary_of_the_method": "as §1"}, "[21]": {"target": "Neu5Ac(a2-3)Gal(b1-3)GalNAc(b1-4)Gal(b1-4)Glc", "summary_of_the_method": "as §1"}, "[22]": {"target": "Neu5Ac(a2-3)Gal(b1-3)GalNAc(b1-4)[Neu5Ac(a2-3)]Gal(b1-4)Glc", "summary_of_the_method": "as §1"}, "[23]": {"target": "Neu5Ac(a2-3)Gal(b1-3)GalNAc(b1-4)[Neu5Ac(a2-8)Neu5Ac(a2-3)]Gal(b1-4)Glc", "summary_of_the_method": "as §1"}, "[24]": {"target": "Neu5Ac(a2-3)Gal(b1-3)GalNAc6S", "summary_of_the_method": "as §1"}, "[25]": {"target": "Neu5Ac(a2-3)Gal(b1-3)GlcNAc", "summary_of_the_method": "as §1"}, "[26]": {"target": "Neu5Ac(a2-3)Gal(b1-3)GlcNAc(b1-2)Man", "summary_of_the_method": "as §1"}, "[27]": {"target": "Neu5Ac(a2-3)Gal(b1-3)GlcNAc(b1-2)Man(a1-3)[GlcNAc(b1-4)][Neu5Ac(a2-3)Gal(b1-3)GlcNAc(b1-2)Man(a1-6)]Man(b1-4)GlcNAc(b1-4)GlcNAc", "summary_of_the_method": "as §1"}, "[28]": {"target": "Neu5Ac(a2-3)Gal(b1-3)GlcNAc(b1-2)Man(a1-3)[Neu5Ac(a2-3)Gal(b1-3)GlcNAc(b1-2)Man(a1-6)]Man(b1-4)GlcNAc(b1-4)GlcNAc", "summary_of_the_method": "as §1"}, "[29]": {"target": "Neu5Ac(a2-3)Gal(b1-3)GlcNAc(b1-2)[Neu5Ac(a2-3)Gal(b1-3)GlcNAc(b1-4)]Man(a1-6)[Neu5Ac(a2-3)Gal(b1-3)GlcNAc(b1-2)Man(a1-3)]Man(b1-4)GlcNAc(b1-4)GlcNAc", "summary_of_the_method": "as §1"}, "[30]": {"target": "Neu5Ac(a2-3)Gal(b1-3)GlcNAc(b1-3)Gal(b1-3)GlcNAc", "summary_of_the_method": "as §1"}, "[31]": {"target": "Neu5Ac(a2-3)Gal(b1-3)GlcNAc(b1-3)Gal(b1-4)GlcNAc", "summary_of_the_method": "as §1"}, "[32]": {"target": "Neu5Ac(a2-3)Gal(b1-3)GlcNAc(b1-3)GalNAc", "summary_of_the_method": "as §1"}, "[33]": {"target": "Neu5Ac(a2-3)Gal(b1-3)GlcNAc(b1-6)GalNAc", "summary_of_the_method": "as §1"}}, "note": "This is one part of the list."}
{"binder": "B1", "values": [{"measurement": "glycan array binding signal (z-score)", "setting": "[1]", "result": 0.459}, {"measurement": "glycan array binding signal (z-score)", "setting": "[2]", "result": -0.383}, {"measurement": "glycan array binding signal (z-score)", "setting": "[3]", "result": 0.323}, {"measurement": "glycan array binding signal (z-score)", "setting": "GlcNAc(b1-6)GalNAc", "result": -0.029}, {"measurement": "glycan array binding signal (z-score)", "setting": "[4]", "result": -0.623}, {"measurement": "glycan array binding signal (z-score)", "setting": "Kdn(a2-3)Gal(b1-3)GalNAc", "result": -0.317}, {"measurement": "glycan array binding signal (z-score)", "setting": "Kdn(a2-3)Gal(b1-3)GlcNAc", "result": 0.013}, {"measurement": "glycan array binding signal (z-score)", "setting": "Kdn(a2-3)Gal(b1-4)Glc", "result": 0.675}, {"measurement": "glycan array binding signal (z-score)", "setting": "Kdn(a2-3)Gal(b1-4)GlcNAc", "result": 1.56}, {"measurement": "glycan array binding signal (z-score)", "setting": "[5]", "result": 0.239}, {"measurement": "glycan array binding signal (z-score)", "setting": "Kdn(a2-6)Gal(b1-4)GlcNAc", "result": -0.819}, {"measurement": "glycan array binding signal (z-score)", "setting": "[6]", "result": -0.558}, {"measurement": "glycan array binding signal (z-score)", "setting": "[7]", "result": -0.456}, {"measurement": "glycan array binding signal (z-score)", "setting": "Man(a1-2)Man(a1-3)Man", "result": -0.419}, {"measurement": "glycan array binding signal (z-score)", "setting": "[8]", "result": -0.567}, {"measurement": "glycan array binding signal (z-score)", "setting": "[9]", "result": -0.786}, {"measurement": "glycan array binding signal (z-score)", "setting": "[10]", "result": 0.726}, {"measurement": "glycan array binding signal (z-score)", "setting": "[11]", "result": -0.537}, {"measurement": "glycan array binding signal (z-score)", "setting": "[12]", "result": -0.197}, {"measurement": "glycan array binding signal (z-score)", "setting": "[13]", "result": -0.4}, {"measurement": "glycan array binding signal (z-score)", "setting": "Man(a1-3)[Man(a1-6)]Man", "result": 0.154}, {"measurement": "glycan array binding signal (z-score)", "setting": "[14]", "result": 0.111}, {"measurement": "glycan array binding signal (z-score)", "setting": "[15]", "result": 0.365}, {"measurement": "glycan array binding signal (z-score)", "setting": "[16]", "result": 0.45}, {"measurement": "glycan array binding signal (z-score)", "setting": "[17]", "result": 0.1}, {"measurement": "glycan array binding signal (z-score)", "setting": "[18]", "result": -0.73}, {"measurement": "glycan array binding signal (z-score)", "setting": "Man(a1-6)Man", "result": 0.39}, {"measurement": "glycan array binding signal (z-score)", "setting": "Man(b1-4)GlcNAc", "result": 5.41}, {"measurement": "glycan array binding signal (z-score)", "setting": "MurNAc(b1-4)GlcNAc", "result": 0.347}, {"measurement": "glycan array binding signal (z-score)", "setting": "Neu5Ac(a2-3)Gal", "result": -0.332}, {"measurement": "glycan array binding signal (z-score)", "setting": "[19]", "result": -0.437}, {"measurement": "glycan array binding signal (z-score)", "setting": "[20]", "result": -0.77}, {"measurement": "glycan array binding signal (z-score)", "setting": "[21]", "result": -0.077}, {"measurement": "glycan array binding signal (z-score)", "setting": "[22]", "result": 0.543}, {"measurement": "glycan array binding signal (z-score)", "setting": "[23]", "result": -0.608}, {"measurement": "glycan array binding signal (z-score)", "setting": "[24]", "result": -0.554}, {"measurement": "glycan array binding signal (z-score)", "setting": "[25]", "result": -0.412}, {"measurement": "glycan array binding signal (z-score)", "setting": "[26]", "result": -0.619}, {"measurement": "glycan array binding signal (z-score)", "setting": "[27]", "result": -0.7}, {"measurement": "glycan array binding signal (z-score)", "setting": "[28]", "result": 2.25}, {"measurement": "glycan array binding signal (z-score)", "setting": "[29]", "result": -0.509}, {"measurement": "glycan array binding signal (z-score)", "setting": "[30]", "result": -0.329}, {"measurement": "glycan array binding signal (z-score)", "setting": "[31]", "result": 0.154}, {"measurement": "glycan array binding signal (z-score)", "setting": "[32]", "result": -0.638}, {"measurement": "glycan array binding signal (z-score)", "setting": "[33]", "result": -0.189}]}
